Tested on: cholesterol-cytochrome c complex
Experiment: Fluorescence emission spectrum of [ald]SS-31: interaction with cholesterol-cytochrome c complex
Assay type: binding

D-Arg-2′,6′-Dmt-Lys-Ald-NH2 [[ald]SS-31]
shift of emission spectrum of the peptide (in contact with both cholesterol and cytochrome c): no shift | emission λmax of the peptide (with 4 μM cytochrome c, no shift): 530 nm | emission λmax of the peptide (with 100 μM cholesterol, blue shift from 530 nm): 436 nm

Reference: patent US20170057995A1, “USE OF AROMATIC-CATIONIC PEPTIDES TO TREAT CHOLESTEROL-INDUCED MITOCHONDRIAL DYSFUNCTION” (CORNELL UNIVERSITY, priority 2013, published 2017)
